From the supplement of paper PMC10849652
This is one part of the list.

Chains of the proteins cited; added tags and fusions are not shown. Lines headed by an entry give the natural chain unless they say otherwise; changes in a name come on top.
UniProt Q96QF0: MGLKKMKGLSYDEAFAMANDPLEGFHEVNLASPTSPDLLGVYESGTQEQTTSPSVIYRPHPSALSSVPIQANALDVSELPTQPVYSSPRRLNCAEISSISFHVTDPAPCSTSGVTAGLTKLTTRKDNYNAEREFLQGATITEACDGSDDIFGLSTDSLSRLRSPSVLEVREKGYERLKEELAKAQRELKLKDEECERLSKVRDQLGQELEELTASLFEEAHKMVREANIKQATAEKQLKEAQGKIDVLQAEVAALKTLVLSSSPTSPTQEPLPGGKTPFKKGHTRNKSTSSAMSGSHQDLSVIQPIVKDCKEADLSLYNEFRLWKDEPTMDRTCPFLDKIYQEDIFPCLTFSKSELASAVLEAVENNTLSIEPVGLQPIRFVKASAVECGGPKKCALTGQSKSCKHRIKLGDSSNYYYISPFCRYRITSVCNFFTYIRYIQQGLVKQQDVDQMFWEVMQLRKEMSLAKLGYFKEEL
UniProt Q9NS91, whole entry, looked up: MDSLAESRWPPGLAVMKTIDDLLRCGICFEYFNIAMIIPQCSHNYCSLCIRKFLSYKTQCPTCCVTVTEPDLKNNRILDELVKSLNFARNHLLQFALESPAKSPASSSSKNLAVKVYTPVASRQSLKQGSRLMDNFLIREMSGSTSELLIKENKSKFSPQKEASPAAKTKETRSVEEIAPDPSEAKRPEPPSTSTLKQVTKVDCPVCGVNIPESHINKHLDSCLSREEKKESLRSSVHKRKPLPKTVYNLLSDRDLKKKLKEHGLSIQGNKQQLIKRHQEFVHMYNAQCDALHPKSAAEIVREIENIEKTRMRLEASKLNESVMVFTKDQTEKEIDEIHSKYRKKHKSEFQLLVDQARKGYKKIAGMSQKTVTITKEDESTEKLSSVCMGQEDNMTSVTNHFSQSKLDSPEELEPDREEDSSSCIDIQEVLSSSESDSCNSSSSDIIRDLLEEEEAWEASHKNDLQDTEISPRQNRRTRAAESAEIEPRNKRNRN
UniProt Q13636: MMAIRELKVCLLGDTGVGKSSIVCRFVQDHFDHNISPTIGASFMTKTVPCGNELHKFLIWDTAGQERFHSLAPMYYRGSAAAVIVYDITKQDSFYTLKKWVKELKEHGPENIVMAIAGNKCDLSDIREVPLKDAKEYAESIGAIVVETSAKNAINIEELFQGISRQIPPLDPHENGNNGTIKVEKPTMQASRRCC
UniProt Q9ULC3: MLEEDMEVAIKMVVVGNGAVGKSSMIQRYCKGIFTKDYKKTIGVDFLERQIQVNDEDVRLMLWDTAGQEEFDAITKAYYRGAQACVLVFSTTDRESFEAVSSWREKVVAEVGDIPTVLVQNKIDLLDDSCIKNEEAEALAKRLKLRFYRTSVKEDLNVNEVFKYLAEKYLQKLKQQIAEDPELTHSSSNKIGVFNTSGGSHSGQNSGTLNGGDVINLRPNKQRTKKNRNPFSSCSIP
UniProt O95716: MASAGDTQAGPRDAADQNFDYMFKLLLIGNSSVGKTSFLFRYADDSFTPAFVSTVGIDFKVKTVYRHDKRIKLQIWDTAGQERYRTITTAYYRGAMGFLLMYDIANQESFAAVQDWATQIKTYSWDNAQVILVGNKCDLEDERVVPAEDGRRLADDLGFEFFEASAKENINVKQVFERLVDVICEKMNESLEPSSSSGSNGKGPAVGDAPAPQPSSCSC
UniProt Q9ULZ3, whole entry, looked up: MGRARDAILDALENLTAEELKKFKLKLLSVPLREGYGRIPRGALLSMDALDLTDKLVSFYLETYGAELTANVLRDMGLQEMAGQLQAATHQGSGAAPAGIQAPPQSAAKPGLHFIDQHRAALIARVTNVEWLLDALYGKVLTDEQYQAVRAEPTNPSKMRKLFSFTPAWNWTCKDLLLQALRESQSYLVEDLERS
UniProt P61026: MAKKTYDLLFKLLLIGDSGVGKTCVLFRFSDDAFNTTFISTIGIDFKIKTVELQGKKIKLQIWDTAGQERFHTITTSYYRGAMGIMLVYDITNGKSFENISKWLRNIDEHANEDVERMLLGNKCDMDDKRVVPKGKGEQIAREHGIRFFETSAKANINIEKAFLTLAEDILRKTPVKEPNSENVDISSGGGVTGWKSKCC
UniProt P46060: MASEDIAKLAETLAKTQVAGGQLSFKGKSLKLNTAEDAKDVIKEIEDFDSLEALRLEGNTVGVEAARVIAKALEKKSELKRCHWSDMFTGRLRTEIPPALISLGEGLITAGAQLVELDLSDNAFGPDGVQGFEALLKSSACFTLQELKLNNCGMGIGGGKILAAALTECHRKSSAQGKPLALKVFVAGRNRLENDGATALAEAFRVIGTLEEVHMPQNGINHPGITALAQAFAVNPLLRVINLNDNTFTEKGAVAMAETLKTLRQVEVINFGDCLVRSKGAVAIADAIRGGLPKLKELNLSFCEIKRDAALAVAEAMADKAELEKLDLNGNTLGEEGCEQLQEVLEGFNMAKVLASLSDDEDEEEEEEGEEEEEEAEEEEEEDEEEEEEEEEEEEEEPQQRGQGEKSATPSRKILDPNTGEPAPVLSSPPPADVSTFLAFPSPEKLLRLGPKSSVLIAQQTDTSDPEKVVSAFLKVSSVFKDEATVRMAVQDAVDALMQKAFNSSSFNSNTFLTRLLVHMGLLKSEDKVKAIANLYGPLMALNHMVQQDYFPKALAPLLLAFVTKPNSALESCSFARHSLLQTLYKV
UniProt Q13905: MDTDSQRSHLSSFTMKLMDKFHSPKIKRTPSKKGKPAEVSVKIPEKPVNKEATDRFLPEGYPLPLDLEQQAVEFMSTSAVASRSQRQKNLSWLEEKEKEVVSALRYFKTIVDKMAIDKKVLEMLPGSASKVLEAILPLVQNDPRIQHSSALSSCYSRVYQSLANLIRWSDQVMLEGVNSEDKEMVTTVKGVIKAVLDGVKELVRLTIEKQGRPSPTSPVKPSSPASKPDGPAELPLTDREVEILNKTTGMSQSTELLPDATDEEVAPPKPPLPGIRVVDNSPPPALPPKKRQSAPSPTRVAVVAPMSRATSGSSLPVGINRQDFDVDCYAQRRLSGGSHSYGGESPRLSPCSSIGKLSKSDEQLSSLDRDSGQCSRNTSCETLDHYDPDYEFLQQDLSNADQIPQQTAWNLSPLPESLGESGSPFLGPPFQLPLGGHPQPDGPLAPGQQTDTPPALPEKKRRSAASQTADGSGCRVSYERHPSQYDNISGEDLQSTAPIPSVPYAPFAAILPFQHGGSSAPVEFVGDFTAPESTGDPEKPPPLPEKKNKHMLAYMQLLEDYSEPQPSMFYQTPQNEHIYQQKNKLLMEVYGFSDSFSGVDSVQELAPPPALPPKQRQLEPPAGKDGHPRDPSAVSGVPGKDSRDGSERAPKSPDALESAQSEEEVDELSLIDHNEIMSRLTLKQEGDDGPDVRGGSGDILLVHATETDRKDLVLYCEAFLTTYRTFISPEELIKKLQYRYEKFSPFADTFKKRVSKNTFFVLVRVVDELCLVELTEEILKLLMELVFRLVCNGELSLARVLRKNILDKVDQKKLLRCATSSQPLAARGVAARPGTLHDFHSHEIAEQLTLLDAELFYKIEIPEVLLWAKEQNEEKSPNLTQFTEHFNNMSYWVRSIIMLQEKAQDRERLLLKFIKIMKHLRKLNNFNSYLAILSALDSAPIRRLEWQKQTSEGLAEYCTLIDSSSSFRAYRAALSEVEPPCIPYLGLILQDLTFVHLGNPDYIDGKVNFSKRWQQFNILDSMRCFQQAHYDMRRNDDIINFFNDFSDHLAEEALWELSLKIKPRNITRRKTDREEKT
UniProt Q9NXS2: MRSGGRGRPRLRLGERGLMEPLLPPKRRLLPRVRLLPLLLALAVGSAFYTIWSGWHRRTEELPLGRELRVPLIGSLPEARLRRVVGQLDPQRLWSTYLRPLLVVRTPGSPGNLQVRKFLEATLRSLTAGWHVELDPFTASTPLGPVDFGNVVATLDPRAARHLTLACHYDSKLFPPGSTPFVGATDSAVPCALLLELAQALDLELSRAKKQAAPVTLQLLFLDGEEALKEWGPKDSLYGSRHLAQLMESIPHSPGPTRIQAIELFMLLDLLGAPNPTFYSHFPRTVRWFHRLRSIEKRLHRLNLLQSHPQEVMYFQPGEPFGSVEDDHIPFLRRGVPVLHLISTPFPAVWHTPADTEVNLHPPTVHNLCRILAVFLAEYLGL
UniProt Q9UKM9: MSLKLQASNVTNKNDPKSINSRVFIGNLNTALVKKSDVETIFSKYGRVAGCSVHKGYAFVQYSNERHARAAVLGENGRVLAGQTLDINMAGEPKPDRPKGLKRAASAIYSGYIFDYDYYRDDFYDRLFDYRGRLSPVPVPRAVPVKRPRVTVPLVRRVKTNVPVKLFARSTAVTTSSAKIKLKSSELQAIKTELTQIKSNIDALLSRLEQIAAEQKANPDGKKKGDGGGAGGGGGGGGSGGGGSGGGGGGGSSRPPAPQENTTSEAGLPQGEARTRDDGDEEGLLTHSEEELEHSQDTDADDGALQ
UniProt Q96PU8: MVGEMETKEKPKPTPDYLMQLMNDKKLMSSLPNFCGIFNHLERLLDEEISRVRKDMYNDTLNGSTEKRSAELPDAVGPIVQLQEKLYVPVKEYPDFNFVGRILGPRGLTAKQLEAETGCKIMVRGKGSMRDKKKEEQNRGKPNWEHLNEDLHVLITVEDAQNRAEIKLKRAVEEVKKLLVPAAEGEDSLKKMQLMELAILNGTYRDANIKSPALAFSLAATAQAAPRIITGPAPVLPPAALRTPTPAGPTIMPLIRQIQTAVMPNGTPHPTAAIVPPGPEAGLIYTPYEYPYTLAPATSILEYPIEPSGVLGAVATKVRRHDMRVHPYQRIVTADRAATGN
UniProt Q15042: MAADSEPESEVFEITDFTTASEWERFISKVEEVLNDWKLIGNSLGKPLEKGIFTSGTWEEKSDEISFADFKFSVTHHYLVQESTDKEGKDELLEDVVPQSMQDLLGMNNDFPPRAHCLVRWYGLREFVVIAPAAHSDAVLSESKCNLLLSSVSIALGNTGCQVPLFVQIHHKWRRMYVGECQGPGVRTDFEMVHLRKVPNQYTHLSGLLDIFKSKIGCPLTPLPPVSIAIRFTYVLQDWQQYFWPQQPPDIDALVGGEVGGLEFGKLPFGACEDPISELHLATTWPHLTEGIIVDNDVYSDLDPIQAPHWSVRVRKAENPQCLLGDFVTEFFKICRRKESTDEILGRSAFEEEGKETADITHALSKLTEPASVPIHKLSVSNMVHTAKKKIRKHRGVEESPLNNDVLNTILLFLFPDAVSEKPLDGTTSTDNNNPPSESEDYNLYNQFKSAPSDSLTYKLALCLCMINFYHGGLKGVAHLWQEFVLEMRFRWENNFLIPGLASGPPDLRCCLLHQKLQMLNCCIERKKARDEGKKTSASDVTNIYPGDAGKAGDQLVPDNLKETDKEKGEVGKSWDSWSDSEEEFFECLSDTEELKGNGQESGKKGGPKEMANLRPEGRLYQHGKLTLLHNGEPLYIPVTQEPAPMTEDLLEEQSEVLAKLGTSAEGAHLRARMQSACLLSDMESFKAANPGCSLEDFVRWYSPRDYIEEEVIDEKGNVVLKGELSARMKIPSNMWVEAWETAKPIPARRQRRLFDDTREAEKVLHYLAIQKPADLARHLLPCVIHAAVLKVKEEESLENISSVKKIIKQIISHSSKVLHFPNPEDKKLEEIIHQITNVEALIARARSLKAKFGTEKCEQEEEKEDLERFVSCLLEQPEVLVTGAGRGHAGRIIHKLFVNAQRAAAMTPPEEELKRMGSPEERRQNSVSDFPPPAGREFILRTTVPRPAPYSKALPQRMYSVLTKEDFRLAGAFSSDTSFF
UniProt Q9NR77: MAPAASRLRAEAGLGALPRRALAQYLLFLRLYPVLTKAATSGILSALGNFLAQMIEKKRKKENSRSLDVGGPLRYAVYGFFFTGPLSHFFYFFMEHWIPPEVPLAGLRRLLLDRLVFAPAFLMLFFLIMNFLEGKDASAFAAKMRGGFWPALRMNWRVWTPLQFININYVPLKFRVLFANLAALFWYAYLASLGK
UniProt Q6ZRP7: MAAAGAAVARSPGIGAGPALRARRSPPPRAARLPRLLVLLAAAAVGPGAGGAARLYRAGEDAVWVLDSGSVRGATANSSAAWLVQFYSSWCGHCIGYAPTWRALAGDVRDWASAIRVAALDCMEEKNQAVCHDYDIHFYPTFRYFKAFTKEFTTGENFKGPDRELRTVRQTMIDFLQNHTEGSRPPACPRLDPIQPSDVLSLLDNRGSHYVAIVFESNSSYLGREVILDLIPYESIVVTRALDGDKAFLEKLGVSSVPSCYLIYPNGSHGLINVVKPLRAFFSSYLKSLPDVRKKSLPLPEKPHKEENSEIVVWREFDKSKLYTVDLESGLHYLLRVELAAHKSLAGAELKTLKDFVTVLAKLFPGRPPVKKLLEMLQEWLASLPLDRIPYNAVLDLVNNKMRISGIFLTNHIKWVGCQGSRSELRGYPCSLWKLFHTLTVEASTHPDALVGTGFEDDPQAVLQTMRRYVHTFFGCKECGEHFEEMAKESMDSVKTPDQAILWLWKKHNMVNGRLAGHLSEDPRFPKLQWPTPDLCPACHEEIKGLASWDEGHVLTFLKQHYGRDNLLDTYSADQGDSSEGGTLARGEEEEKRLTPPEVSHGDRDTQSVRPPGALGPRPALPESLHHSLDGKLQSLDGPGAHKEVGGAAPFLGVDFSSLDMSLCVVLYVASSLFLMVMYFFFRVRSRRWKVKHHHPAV

The targets below were run with NCC(=O)Nc1ccc(-n2nc(C(F)(F)F)cc2-c2ccc3c(ccc4ccccc43)c2)cc1 (assay: log2 fold change, soluble protein after heating vs DMSO (PISA); higher = thermal stabilisation; K562 lysate, 10 uM; active = over 0.2 and 3.5 SD of the protein, either way, in both replicates (recomputed)).
How it was run: (§1)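 A 30 min treatment with 10 μM compound was applied to crude K562 extract at 1 mg/mL protein in PBS pH 7.4 with 1 mM MgCl2. Heating for 3 min spanned 48°C-58°C, after which aliquots were pooled, adjusted to 0.5% NP-40 at 4°C and spun at 21,000xg for 90 min. TMTpro 16plex LC-MS/MS of the supernatant, with channel sums equalised, gave values recorded as log-two fold change in thermal stability against solvent controls, from duplicates.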

With RALB isoform 2 (UniProt P11234) as the target, how does the log2 fold change read?
The log2 fold change was inactive: -0.003.

For RAI14 isoform 2 (UniProt Q9P0K7), which log2 fold change is on record?
Its log2 fold change is inactive: 0.005.

RAB6D (UniProt Q53S08) was tested. Which log2 fold change did it give?
The log2 fold change was inactive: -0.012.

For RALGAPB (UniProt Q86X10), which log2 fold change is on record?
Its log2 fold change is inactive: 0.004.

For RAB3IP (UniProt Q96QF0), which log2 fold change is on record?
Its log2 fold change is inactive: -0.015.

For RANBP6 (UniProt O60518), which log2 fold change is on record?
The log2 fold change was inactive: 0.013.

How did the log2 fold change turn out when RAD18 (UniProt Q9NS91) was run?
Its log2 fold change is inactive: 0.004.

With RANBP1 (UniProt P43487) as the target, how does the log2 fold change read?
The log2 fold change was inactive: -0.023.

Which log2 fold change does the source give for RACGAP1 (UniProt Q9H0H5) here?
Its log2 fold change is inactive: -0.018.

RAB28 (UniProt P51157) was tested. Which log2 fold change did it give?
Its log2 fold change is inactive: -0.078.

For RAB31 (UniProt Q13636), which log2 fold change is on record?
Its log2 fold change is inactive: -0.046.

How did the log2 fold change turn out when RAB23 (UniProt Q9ULC3) was run?
Its log2 fold change is inactive: -0.036.

How did the log2 fold change turn out when RAP2B (UniProt P61225) was run?
Its log2 fold change is inactive: -0.013.

Which log2 fold change does the source give for QDPR (UniProt P09417) here?
Its log2 fold change is inactive: 0.009.

With RAB3D (UniProt O95716) as the target, how does the log2 fold change read?
Its log2 fold change is inactive: 0.009.

Which log2 fold change does the source give for PYCARD (UniProt Q9ULZ3) here?
The log2 fold change was inactive: 0.011.

With RAB10 (UniProt P61026) as the target, how does the log2 fold change read?
The log2 fold change was inactive: -0.026.

For RABGAP1 (UniProt Q9Y3P9), which log2 fold change is on record?
The log2 fold change was inactive: -0.006.

Which log2 fold change does the source give for RANGAP1 (UniProt P46060) here?
Its log2 fold change is inactive: 0.021.

For RAB11B (UniProt Q15907), which log2 fold change is on record?
Its log2 fold change is inactive: 0.002.

For RAPGEF1 isoform 3 (UniProt Q13905), which log2 fold change is on record?
The log2 fold change was inactive: -0.011.

How did the log2 fold change turn out when RAP2C (UniProt Q9Y3L5) was run?
The log2 fold change was inactive: 0.089.

With RAB1A (UniProt P62820) as the target, how does the log2 fold change read?
Its log2 fold change is inactive: -0.016.

For QPCTL (UniProt Q9NXS2), which log2 fold change is on record?
Its log2 fold change is inactive: -0.117.

RALY (UniProt Q9UKM9) was tested. Which log2 fold change did it give?
Its log2 fold change is inactive: -0.038.

RACK1 (UniProt D6RHH4) was tested. Which log2 fold change did it give?
The log2 fold change was inactive: -0.04.

How did the log2 fold change turn out when QKI (UniProt Q96PU8) was run?
The log2 fold change was inactive: -0.008.

With RAB18 (UniProt Q9NP72) as the target, how does the log2 fold change read?
Its log2 fold change is inactive: 0.015.

With RAD23B (UniProt P54727) as the target, how does the log2 fold change read?
Its log2 fold change is inactive: -0.007.

RAB3GAP1 (UniProt Q15042) was tested. Which log2 fold change did it give?
The log2 fold change was inactive: -0.015.

With PXMP2 (UniProt Q9NR77) as the target, how does the log2 fold change read?
The log2 fold change was inactive: 0.031.

With QSOX2 (UniProt Q6ZRP7) as the target, how does the log2 fold change read?
Its log2 fold change is inactive: 0.035.

Each target was assayed with O=C(CCCCCCC(=O)Nc1ccccc1)NO [vorinostat] in the same assay as above.
How it was run: as §1

How did the log2 fold change turn out when RALB isoform 2 (UniProt P11234) was run?
The log2 fold change was inactive: 0.162.

RAI14 isoform 2 (UniProt Q9P0K7) was tested. Which log2 fold change did it give?
The log2 fold change was active: -0.254.

With RAB6D (UniProt Q53S08) as the target, how does the log2 fold change read?
The log2 fold change was inactive: 0.151.

How did the log2 fold change turn out when RALGAPB (UniProt Q86X10) was run?
Its log2 fold change is active: -0.299.

With RAB3IP (UniProt Q96QF0) as the target, how does the log2 fold change read?
Its log2 fold change is inactive: -0.202.

How did the log2 fold change turn out when RANBP6 (UniProt O60518) was run?
Its log2 fold change is active: -0.345.

How did the log2 fold change turn out when RAD18 (UniProt Q9NS91) was run?
The log2 fold change was inactive: -0.107.

How did the log2 fold change turn out when RANBP1 (UniProt P43487) was run?
Its log2 fold change is inactive: 0.135.

RACGAP1 (UniProt Q9H0H5) was tested. Which log2 fold change did it give?
Its log2 fold change is inactive: -0.229.

RAB28 (UniProt P51157) was tested. Which log2 fold change did it give?
Its log2 fold change is inactive: -0.154.

Which log2 fold change does the source give for RAB31 (UniProt Q13636) here?
Its log2 fold change is inactive: 0.013.

How did the log2 fold change turn out when RAB23 (UniProt Q9ULC3) was run?
Its log2 fold change is inactive: 0.048.

For RAP2B (UniProt P61225), which log2 fold change is on record?
The log2 fold change was inactive: 0.046.

QDPR (UniProt P09417) was tested. Which log2 fold change did it give?
Its log2 fold change is inactive: -0.043.

With RAB3D (UniProt O95716) as the target, how does the log2 fold change read?
Its log2 fold change is inactive: 0.144.

Which log2 fold change does the source give for PYCARD (UniProt Q9ULZ3) here?
The log2 fold change was inactive: 0.153.

RAB10 (UniProt P61026) was tested. Which log2 fold change did it give?
The log2 fold change was inactive: 0.113.

With RABGAP1 (UniProt Q9Y3P9) as the target, how does the log2 fold change read?
Its log2 fold change is inactive: -0.038.

With RANGAP1 (UniProt P46060) as the target, how does the log2 fold change read?
The log2 fold change was inactive: -0.112.

Which log2 fold change does the source give for RAB11B (UniProt Q15907) here?
The log2 fold change was inactive: 0.187.

With RAPGEF1 isoform 3 (UniProt Q13905) as the target, how does the log2 fold change read?
The log2 fold change was inactive: -0.127.

RAP2C (UniProt Q9Y3L5) was tested. Which log2 fold change did it give?
The log2 fold change was inactive: 0.13.

How did the log2 fold change turn out when RAB1A (UniProt P62820) was run?
Its log2 fold change is inactive: 0.135.

QPCTL (UniProt Q9NXS2) was tested. Which log2 fold change did it give?
Its log2 fold change is inactive: 0.111.

RALY (UniProt Q9UKM9) was tested. Which log2 fold change did it give?
Its log2 fold change is inactive: 0.07.

Which log2 fold change does the source give for QKI (UniProt Q96PU8) here?
The log2 fold change was inactive: -0.147.

With RAB18 (UniProt Q9NP72) as the target, how does the log2 fold change read?
Its log2 fold change is inactive: 0.041.

With RAD23B (UniProt P54727) as the target, how does the log2 fold change read?
Its log2 fold change is inactive: 0.134.

For RAB3GAP1 (UniProt Q15042), which log2 fold change is on record?
The log2 fold change was inactive: -0.104.

Which log2 fold change does the source give for PXMP2 (UniProt Q9NR77) here?
Its log2 fold change is inactive: 0.072.

For QSOX2 (UniProt Q6ZRP7), which log2 fold change is on record?
The log2 fold change was inactive: 0.131.

These targets were tested with O=C(O)c1ccc2c(c1)nc(Nc1cccc(Cl)c1)c1ccncc12 [silmitasertib] in the same assay as above.
How it was run: as §1

Which log2 fold change does the source give for RALB isoform 2 (UniProt P11234) here?
The log2 fold change was inactive: 0.

With RAI14 isoform 2 (UniProt Q9P0K7) as the target, how does the log2 fold change read?
Its log2 fold change is inactive: 0.022.

With RAB6D (UniProt Q53S08) as the target, how does the log2 fold change read?
Its log2 fold change is inactive: -0.02.

For RALGAPB (UniProt Q86X10), which log2 fold change is on record?
Its log2 fold change is inactive: 0.017.

Which log2 fold change does the source give for RAB3IP (UniProt Q96QF0) here?
Its log2 fold change is inactive: 0.038.

How did the log2 fold change turn out when RANBP6 (UniProt O60518) was run?
Its log2 fold change is inactive: 0.054.

Which log2 fold change does the source give for RAD18 (UniProt Q9NS91) here?
Its log2 fold change is inactive: 0.019.

How did the log2 fold change turn out when RANBP1 (UniProt P43487) was run?
The log2 fold change was inactive: -0.012.

How did the log2 fold change turn out when RACGAP1 (UniProt Q9H0H5) was run?
The log2 fold change was inactive: -0.031.

For RAB28 (UniProt P51157), which log2 fold change is on record?
The log2 fold change was inactive: 0.061.

How did the log2 fold change turn out when RAB31 (UniProt Q13636) was run?
Its log2 fold change is inactive: 0.015.

For RAB23 (UniProt Q9ULC3), which log2 fold change is on record?
The log2 fold change was inactive: 0.007.

Which log2 fold change does the source give for RAP2B (UniProt P61225) here?
Its log2 fold change is inactive: 0.083.

QDPR (UniProt P09417) was tested. Which log2 fold change did it give?
The log2 fold change was inactive: 0.025.

RAB3D (UniProt O95716) was tested. Which log2 fold change did it give?
The log2 fold change was inactive: 0.023.

For PYCARD (UniProt Q9ULZ3), which log2 fold change is on record?
Its log2 fold change is inactive: -0.012.

Which log2 fold change does the source give for RAB10 (UniProt P61026) here?
The log2 fold change was inactive: -0.009.

How did the log2 fold change turn out when RABGAP1 (UniProt Q9Y3P9) was run?
The log2 fold change was inactive: -0.006.

RANGAP1 (UniProt P46060) was tested. Which log2 fold change did it give?
Its log2 fold change is inactive: 0.015.

For RAB11B (UniProt Q15907), which log2 fold change is on record?
The log2 fold change was inactive: -0.003.

With RAPGEF1 isoform 3 (UniProt Q13905) as the target, how does the log2 fold change read?
Its log2 fold change is inactive: 0.007.

With RAP2C (UniProt Q9Y3L5) as the target, how does the log2 fold change read?
The log2 fold change was inactive: -0.026.

With RAB1A (UniProt P62820) as the target, how does the log2 fold change read?
The log2 fold change was inactive: 0.021.

For QPCTL (UniProt Q9NXS2), which log2 fold change is on record?
Its log2 fold change is inactive: -0.007.

RALY (UniProt Q9UKM9) was tested. Which log2 fold change did it give?
Its log2 fold change is inactive: -0.018.

QKI (UniProt Q96PU8) was tested. Which log2 fold change did it give?
Its log2 fold change is inactive: 0.021.

Which log2 fold change does the source give for RAB18 (UniProt Q9NP72) here?
The log2 fold change was inactive: 0.095.

Which log2 fold change does the source give for RAD23B (UniProt P54727) here?
Its log2 fold change is inactive: 0.002.

For RAB3GAP1 (UniProt Q15042), which log2 fold change is on record?
The log2 fold change was inactive: -0.01.

PXMP2 (UniProt Q9NR77) was tested. Which log2 fold change did it give?
Its log2 fold change is inactive: 0.024.

Which log2 fold change does the source give for QSOX2 (UniProt Q6ZRP7) here?
Its log2 fold change is inactive: 0.
